The values below come from PMC6547421.

By UniProt entry, the sequences of proteins in these tests, tags left out. Residues count along the entry.
UniProt Q9Y2C4, 42-368 H140A/C299A: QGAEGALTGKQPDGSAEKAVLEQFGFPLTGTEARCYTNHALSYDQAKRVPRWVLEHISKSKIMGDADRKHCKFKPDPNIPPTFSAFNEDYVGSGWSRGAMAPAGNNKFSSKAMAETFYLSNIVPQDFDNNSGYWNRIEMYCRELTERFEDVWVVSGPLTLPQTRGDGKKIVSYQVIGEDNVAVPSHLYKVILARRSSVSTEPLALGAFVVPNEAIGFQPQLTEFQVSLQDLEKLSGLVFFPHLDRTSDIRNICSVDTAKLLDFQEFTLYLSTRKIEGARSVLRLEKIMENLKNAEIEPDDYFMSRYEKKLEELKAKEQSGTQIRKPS

The exact form of at least one protein or probe is not confirmed. At least one verdict rests on a figure or table, not on a statement of the authors.

The data set has as its target ExoG-H140A/C299A (Homo sapiens) (UniProt Q9Y2C4). Put plainly: fluorescence polarization. Particulars: 2.5 mM Mg2+, no notable change vs H140A, Kd only in figure, FP: 10 nM FAM substrate, 10 mM HEPES pH 7.4, 150 mM NaCl, 2.5 mM MgCl2, temperature not stated, recombinant protein, protein details: N-terminal His, label: 3'-FAM strand 1, 5'-biotin strand 2.

Turning to “GCTTAACGCTGACTCGCTAC / GTAGCGAGTCAGCGTTAAGCACTATCATAGCCATCTGCCATTACTG [DNA/DNA]”, where the note is “5'-phosphate on strand 1”, the binding result is listed as “binds”.
Regarding “GCTTAACGCTGACTCGCTAC / GTAGCGAGTCAGCGTTAAGCACTATCATAGCCATCTGCCATTACTG [R2-DNA/DNA]”, the binding result (strand 1 nt 1-2 (GC) are ribonucleotides, rest DNA, 5'-phosphate on strand 1) was “binds”.
Consider “GCUUAACGCUGACUCGCUAC / GTAGCGAGTCAGCGTTAAGCACTATCATAGCCATCTGCCATTACTG [RNA/DNA]”, for which the binding result (strand 1 RNA with 5'-phosphate, strand 2 DNA, DNA:RNA hybrid) is recorded as “binds”.
